{"source": "PubChem BioAssay AID1224830 – NIAID | 2016", "assay": "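Regulators of TLR4 signalling towards TNF-alpha in macrophage-like cells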 (primary screen)", "cells": "human THP-1 monocytic leukaemia cells, TNF dual-luciferase reporter clone, PMA-differentiated to macrophage-like cells", "knock-down reagent": "siRNA pool against human genes, 50 nM", "timing": "LPS for 4 h, given about 3 days after siRNA transfection", "conditions": "bacterial LPS (TLR4 ligand), 10 ng/ml", "measured": "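TNF firefly reporter luminescence divided by renilla, normalised to the plate median, then turned into a robust z-score for each replicate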", "scale": "TNF reporter robust z-score: higher = stronger TNF reporter response to LPS", "call rule": "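Each well counts as active if its z-score is over 2.8 or under -1.5; controls are left without a call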", "note": "Shown is an unselected part of about 18,000 deposited reagents. About 2,900 of all reagents (16%) were called active. 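Calls are made per well; low scores hint the gene aids the LPS response, high scores that it dampens it.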 Repeated entries: four replicate wells of each siRNA pool."}
{"Gene": "SRPRA", "TNF reporter robust z-score": 0.91, "Outcome": "inactive"}
{"Gene": "SRPRA", "TNF reporter robust z-score": 0.42, "Outcome": "inactive"}
{"Gene": "SRPRA", "TNF reporter robust z-score": 0, "Outcome": "inactive"}
{"Gene": "SRPRA", "TNF reporter robust z-score": 1.25, "Outcome": "inactive"}
{"Gene": "HES6", "TNF reporter robust z-score": -0.75, "Outcome": "inactive"}
{"Gene": "HES6", "TNF reporter robust z-score": 0.67, "Outcome": "inactive"}
{"Gene": "HES6", "TNF reporter robust z-score": -0.62, "Outcome": "inactive"}
{"Gene": "HES6", "TNF reporter robust z-score": 0.51, "Outcome": "inactive"}
{"Gene": "MAPK6", "TNF reporter robust z-score": 0, "Outcome": "inactive"}
{"Gene": "MAPK6", "TNF reporter robust z-score": -0.59, "Outcome": "inactive"}
{"Gene": "MAPK6", "TNF reporter robust z-score": -0.72, "Outcome": "inactive"}
{"Gene": "MAPK6", "TNF reporter robust z-score": 0.79, "Outcome": "inactive"}
{"Gene": "CCDC174", "TNF reporter robust z-score": 1.57, "Outcome": "inactive"}
{"Gene": "CCDC174", "TNF reporter robust z-score": 2.34, "Outcome": "inactive"}
{"Gene": "CCDC174", "TNF reporter robust z-score": 0.38, "Outcome": "inactive"}
{"Gene": "CCDC174", "TNF reporter robust z-score": 1.14, "Outcome": "inactive"}
{"Gene": "AMMECR1L", "TNF reporter robust z-score": -0.34, "Outcome": "inactive"}
{"Gene": "AMMECR1L", "TNF reporter robust z-score": 0.79, "Outcome": "inactive"}
{"Gene": "AMMECR1L", "TNF reporter robust z-score": -0.86, "Outcome": "inactive"}
{"Gene": "AMMECR1L", "TNF reporter robust z-score": -1.06, "Outcome": "inactive"}

The list goes on (3 carried over from the part before).
{"Gene": "AMMECR1L", "TNF reporter robust z-score": 0.79, "Outcome": "inactive"}
{"Gene": "AMMECR1L", "TNF reporter robust z-score": -0.86, "Outcome": "inactive"}
{"Gene": "AMMECR1L", "TNF reporter robust z-score": -1.06, "Outcome": "inactive"}
{"Gene": "AGRN", "TNF reporter robust z-score": -1.33, "Outcome": "inactive"}
{"Gene": "AGRN", "TNF reporter robust z-score": -1.29, "Outcome": "inactive"}
{"Gene": "AGRN", "TNF reporter robust z-score": -0.9, "Outcome": "inactive"}
{"Gene": "JSRP1", "TNF reporter robust z-score": 0.69, "Outcome": "inactive"}
{"Gene": "JSRP1", "TNF reporter robust z-score": 0.73, "Outcome": "inactive"}
{"Gene": "JSRP1", "TNF reporter robust z-score": -0.23, "Outcome": "inactive"}
{"Gene": "JSRP1", "TNF reporter robust z-score": 0.22, "Outcome": "inactive"}
{"Gene": "MORN4", "TNF reporter robust z-score": 1.48, "Outcome": "inactive"}
{"Gene": "MORN4", "TNF reporter robust z-score": 0.77, "Outcome": "inactive"}
{"Gene": "MORN4", "TNF reporter robust z-score": 1.02, "Outcome": "inactive"}
{"Gene": "MORN4", "TNF reporter robust z-score": -0.01, "Outcome": "inactive"}
{"Gene": "CAMK2D", "TNF reporter robust z-score": 5.64, "Outcome": "active"}
{"Gene": "CAMK2D", "TNF reporter robust z-score": 2.65, "Outcome": "inactive"}
{"Gene": "CAMK2D", "TNF reporter robust z-score": -0.24, "Outcome": "inactive"}
{"Gene": "CAMK2D", "TNF reporter robust z-score": 5.22, "Outcome": "active"}
{"Gene": "SLAMF8", "Outcome": "inactive"}
{"Gene": "SLAMF8", "TNF reporter robust z-score": 0.63, "Outcome": "inactive"}
{"Gene": "SLAMF8", "TNF reporter robust z-score": 0.26, "Outcome": "inactive"}
{"Gene": "SLAMF8", "TNF reporter robust z-score": 1.07, "Outcome": "inactive"}
{"Gene": "CAMTA2", "TNF reporter robust z-score": -0.26, "Outcome": "inactive"}
{"Gene": "CAMTA2", "TNF reporter robust z-score": -0.32, "Outcome": "inactive"}
{"Gene": "CAMTA2", "TNF reporter robust z-score": -0.01, "Outcome": "inactive"}
{"Gene": "CAMTA2", "TNF reporter robust z-score": 0.31, "Outcome": "inactive"}
{"Gene": "BRD9", "TNF reporter robust z-score": 2.56, "Outcome": "inactive"}
{"Gene": "BRD9", "TNF reporter robust z-score": -0.36, "Outcome": "inactive"}
{"Gene": "BRD9", "TNF reporter robust z-score": -0.09, "Outcome": "inactive"}
{"Gene": "BRD9", "TNF reporter robust z-score": 0.5, "Outcome": "inactive"}
